Reference: US20250176599A1, “FLAVOR COMPOSITION AND FOOD AND BEVERAGE” (TAKASAGO INTERNATIONAL CORPORATION, priority 2021, published 2025)

Columns and labels:
[1] = Sensory evaluation of aqueous solution II containing (E)-2-octenal 10 ppb: off-flavor intensity and masking component intensity; conditions: average score 0-4
Experimental: (§1) In ion-exchanged water, each degradation component was added to achieve the concentrations listed in Table 1, and aqueous solutions I to VI containing these degradation components were prepared.
(§2) For the aforementioned aqueous solutions containing degradation components, nootkatone was added at the concentrations listed in Table 2 to confirm the intensity of the off-flavor (masking effect) in each sample and the intensity of the masking component itself (the impact on the flavor of the food and/or beverage itself).
(§3) The test was conducted as follows. Eight experienced panelists were selected to conduct a sensory evaluation. The intensity of the off-flavor of the aqueous solution containing the degradation components derived from unsaturated fatty acids, without added masking components, was set as “Evaluation: 4.” The ion-exchanged water free of any degradation components was set as “Evaluation: 0.” The intensity of the off-flavor (masking effect) of each sample was then relatively evaluated according to the following evaluation criteria.
(§4) • Off-flavor is strongly sensed: 4 points • Off-flavor is sensed: 3 points • Off-flavor is slightly sensed: 2 points • Off-flavor is barely sensed: 1 point • Off-flavor is not sensed at all: 0 points
(§5) Also, the intensity of the masking components (impact on the flavor of the food and/or beverage itself) was absolutely evaluated according to the following evaluation criteria.
(§6) • Masking component is strongly sensed: 4 points • Masking component is sensed: 3 points • Masking component is slightly sensed: 2 points • Masking component is barely sensed: 1 point • Masking component is not sensed at all: 0 points

[2] = Sensory evaluation of aqueous solution IV containing 1,5-octadien-3-one 100 ppt: off-flavor intensity and masking component intensity; conditions: aqueous solution IV, 1,5-octadien-3-one 100 ppt, average score 0-4
Experimental: as §1, §2, §3, §4, §5, §6

[3] = Sensory evaluation of aqueous solution I containing (E)-2-nonenal 1 ppb: off-flavor intensity and masking component intensity; conditions: average score 0-4
Experimental: as §1, §2, §3, §4, §5, §6

[4] = Sensory evaluation of aqueous solution V containing 1-octen-3-ol 10 ppb: off-flavor intensity and masking component intensity; conditions: average score 0-4
Experimental: as §1, §2, §3, §4, §5, §6

Compound | Masking Component Intensity ([1]; 1 ppb added) | Masking Component Intensity ([1]; 1 ppm added) | Masking Component Intensity ([1]; 10 ppb added) | Masking Component Intensity ([1]; 10 ppt added) | Masking Component Intensity ([1]; 100 ppb added) | Masking Component Intensity ([1]; 100 ppt added) | Masking Component Intensity ([2]; 1 ppb added) | Masking Component Intensity ([2]; 1 ppm added) | Masking Component Intensity ([2]; 10 ppb added) | Masking Component Intensity ([2]; 10 ppt added) | Masking Component Intensity ([2]; 100 ppb added) | Masking Component Intensity ([2]; 100 ppt added) | Masking Component Intensity ([3]; 1 ppb added) | Masking Component Intensity ([3]; 1 ppm added) | Masking Component Intensity ([3]; 10 ppb added) | Masking Component Intensity ([3]; 10 ppt added) | Masking Component Intensity ([3]; 100 ppb added) | Masking Component Intensity ([3]; 100 ppt added) | Masking Component Intensity ([4]; 1 ppb added) | Masking Component Intensity ([4]; 1 ppm added) | also measured
CC(=O)/C=C/C1C(C)=CCCC1(C)C (stereo not drawn) [α-Ionone, α-ionone] | 1.5 points | 3.5 points | 2.3 points | 0.8 points | 2.9 points | 1.1 points | 1.0 points | 3.5 points | 1.8 points | 0.6 points | 2.5 points | 0.8 points | 1.8 points | 3.6 points | 2.3 points | 0.8 points | 3.0 points | 1.1 points | 1.3 points | 3.4 points | Masking Component Intensity ([1]; 0.1 ppt added): 0.1 points; Masking Component Intensity ([1]; 1 ppt added): 0.3 points; Masking Component Intensity ([1]; 10 ppm added): 4.0 points; Masking Component Intensity ([2]; 0.1 ppt added): 0.0 points; Masking Component Intensity ([2]; 1 ppt added): 0.3 points; Masking Component Intensity ([2]; 10 ppm added): 4.0 points; Masking Component Intensity ([3]; 0.1 ppt added): 0.3 points; Masking Component Intensity ([3]; 1 ppt added): 0.6 points; Masking Component Intensity ([3]; 10 ppm added): 4.0 points; Masking Component Intensity ([4]; 0.1 ppt added): 0.1 points; Masking Component Intensity ([4]; 1 ppt added): 0.3 points; Masking Component Intensity ([4]; 10 ppb added): 2.1 points; Masking Component Intensity ([4]; 10 ppm added): 4.0 points; Masking Component Intensity ([4]; 10 ppt added): 0.8 points; Masking Component Intensity ([4]; 100 ppb added): 2.8 points; Masking Component Intensity ([4]; 100 ppt added): 1.0 points
C=C(C)[C@@H]1CCC2=CC(=O)C[C@@H](C)[C@]2(C)C1 [Nootkatone, nootkatone] | 0.9 points | 2.6 points | 1.1 points | 0.4 points | 1.5 points | 0.5 points | 0.4 points | 2.5 points | 0.9 points | 0.1 points | 1.6 points | 0.3 points | 0.9 points | 2.9 points | 1.1 points | 0.3 points | 1.6 points | 0.3 points | 0.4 points | 2.5 points | Masking Component Intensity ([1]; 5 ppm added): 3.8 points; Masking Component Intensity ([1]; 10 ppm added): 4.0 points; Masking Component Intensity ([2]; 5 ppm added): 3.6 points; Masking Component Intensity ([2]; 10 ppm added): 4.0 points; Masking Component Intensity ([3]; 5 ppm added): 3.4 points; Masking Component Intensity ([3]; 10 ppm added): 3.8 points; Masking Component Intensity ([4]; 5 ppm added): 3.3 points; Masking Component Intensity ([4]; 10 ppb added): 1.3 points; Masking Component Intensity ([4]; 10 ppm added): 3.9 points; Masking Component Intensity ([4]; 10 ppt added): 0.3 points; Masking Component Intensity ([4]; 100 ppb added): 1.5 points; Masking Component Intensity ([4]; 100 ppt added): 0.3 points
CC(=O)/C=C/C1=C(C)CCCC1(C)C [β-Ionone, β-ionone] | 2.1 points | 3.9 points | 2.6 points | 1.1 points | 3.4 points | 1.4 points | 1.8 points | 3.8 points | 2.1 points | 0.5 points | 2.8 points | 1.0 points | 1.9 points | 3.9 points | 2.4 points | 0.8 points | 3.3 points | 1.3 points | 2.0 points | 3.9 points | Masking Component Intensity ([1]; 0.01 ppt added): 0.3 points; Masking Component Intensity ([1]; 0.1 ppt added): 0.5 points; Masking Component Intensity ([1]; 1 ppt added): 0.9 points; Masking Component Intensity ([2]; 0.01 ppt added): 0.1 points; Masking Component Intensity ([2]; 0.1 ppt added): 0.3 points; Masking Component Intensity ([2]; 1 ppt added): 0.4 points; Masking Component Intensity ([3]; 0.01 ppt added): 0.4 points; Masking Component Intensity ([3]; 0.1 ppt added): 0.5 points; Masking Component Intensity ([3]; 1 ppt added): 0.5 points; Masking Component Intensity ([4]; 0.01 ppt added): 0.1 points; Masking Component Intensity ([4]; 0.1 ppt added): 0.4 points; Masking Component Intensity ([4]; 1 ppt added): 0.6 points; Masking Component Intensity ([4]; 10 ppb added): 2.5 points; Masking Component Intensity ([4]; 10 ppt added): 0.6 points; Masking Component Intensity ([4]; 100 ppb added): 3.3 points; Masking Component Intensity ([4]; 100 ppt added): 1.3 points
C=CC(C)(CCC=C(C)C)OC(=O)CCC (centres unmarked) [Linalyl Butyrate, linalyl butyrate] | 1.5 points | 3.5 points | 1.8 points | 0.8 points | 2.5 points | 1.3 points | 1.0 points | 3.0 points | 1.6 points | 0.5 points | 1.8 points | 0.8 points | 1.0 points | 3.3 points | 1.4 points | 0.3 points | 2.0 points | 0.9 points | 1.0 points | 3.3 points | Masking Component Intensity ([1]; 5 ppm added): 4.0 points; Masking Component Intensity ([1]; 50 ppb added): 2.3 points; Masking Component Intensity ([1]; 500 ppb added): 3.4 points; Masking Component Intensity ([2]; 5 ppm added): 3.8 points; Masking Component Intensity ([2]; 50 ppb added): 1.8 points; Masking Component Intensity ([2]; 500 ppb added): 2.8 points; Masking Component Intensity ([3]; 5 ppm added): 3.8 points; Masking Component Intensity ([3]; 50 ppb added): 1.6 points; Masking Component Intensity ([3]; 500 ppb added): 2.8 points; Masking Component Intensity ([4]; 5 ppm added): 3.9 points; Masking Component Intensity ([4]; 10 ppb added): 1.5 points; Masking Component Intensity ([4]; 10 ppt added): 0.4 points; Masking Component Intensity ([4]; 50 ppb added): 1.9 points; Masking Component Intensity ([4]; 100 ppb added): 2.4 points; Masking Component Intensity ([4]; 100 ppt added): 0.5 points; Masking Component Intensity ([4]; 500 ppb added): 3.0 points
